Measurements published in PubChem BioAssay AID2685 (National Center for Advancing Translational Sciences (NCATS), 2010).
The campaign covered roughly 320,000 compounds. About 2,100 (0.66%) were called active. Calls come from the whole dose curve; as a rule, active = well fitted inhibition curve with a large enough effect in the signal ratio, with a control signal flat (not every such curve was filed as active); inconclusive = small, poorly fitted or top-dose-only effect, or effect the other way, or a change in a side signal; inactive = flat fitted curve, though single readings scatter; the % refers to the signal ratio. The inconclusive results got no clear call from the source. Where the call is inconclusive, the potency comes from a doubtful curve fit.

Experiment: qHTS Assay for Lipid Storage Modulators in Drosophila S3 Cells
Details: BODIPY lipid droplet fluorescence, 18-24 h, cells fed with added oleic acid; lipid storage change, negative = inhibition: at 46.1 µM (top of the series) unless noted
In short: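 Laser-scanning cytometry quantifies lipid droplet accumulation (500–530 nm total intensity; droplet/cell object ratio) in oleic acid-fed (400 uM added) Drosophila S3 cells treated with a concentration series. 20 uM Triacsin C defined 100% inhibition.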
% is set by controls: 0 for no effect and ±100 for the full control effect; potency is the fitted concentration of half-maximal effect.

Lipid storage change, negative = inhibition, inconclusive:
C=CCN=C(NC#N)SCC(=O)NC(C)(C)C 12.2%
CCc1ccc(C2CC(=O)N3CN(c4ccccc4)CSC3=C2C#N)cc1 (stereo not given) 63.5%
c1cc(N2CCCC2)ccc1C(c1nnnn1C1CCCCC1)N1CCOCC1 (stereo not given) 2.33%
O=C(NCc1ccco1)c1cccc2c1C(=O)N(C1CCCCC1)C2 5.21%
O=C(NCC1CCCO1)c1ccc(COc2ccccc2Br)cc1 (stereo not given) -1.82%
CCOc1ccc(N2C(=O)CC(Sc3ccccc3C(=O)O)C2=O)c([N+](=O)[O-])c1 (stereo not given) -14.9%
CC(C)On1c(SC(C)C)nc2ccccc2c1=O -2.55%
O=[N+]([O-])c1ccc2c(c1)C(O)n1ncnc1S2 (stereo not given) 40%
O=C(NC1CCCCCC1)c1ccc2c(=O)n3c(nc2c1)CCCCC3 -7.39%
CC(C)CCNC(=O)c1ccc(Cl)c(NC(=O)c2ccccc2F)c1 15.6%
COCc1nnc(NC(=O)c2sc3ccccc3c2Cl)s1 4.88%
NC(=O)CSc1nc2ccccc2n1Cc1ccccc1F 86.4%
CCCCNC(C(=O)Nc1cccc(S(=O)(=O)N2CCOCC2)c1)c1ccccc1 (stereo not given) 20.4%
COc1ccc(NC(=O)CCC(=O)c2cccs2)cc1Cl -62.9%
Cc1cc(S(=O)(=O)N2CCOCC2)ccc1OCC(=O)NCCCn1ccnc1 -22.9%
Cc1ccc(NC(=O)CCC(=O)N/N=C/c2cccs2)cc1C 21.1%
COc1ccc(-c2cc(C(=O)N(C)CCc3ccc(OC)c(OC)c3)c3ccccc3n2)cc1 -42.8%
CC(C)(C)C(=O)N1CCN(CCN2C(=O)c3cccc4cccc(c34)C2=O)CC1 0.292%
O=C(OCc1c(Cl)cccc1Cl)c1cnccn1 3.67%
Cc1cc(NC(=O)c2cccs2)n(-c2ccccc2)n1 -6.45%
COc1ccc(NC(=O)Cc2coc3ccc4ccccc4c23)cc1S(=O)(=O)N1CCOCC1 -32.4%
Cc1ccc(-n2nc3c(=O)n(CC(=O)NCc4ccccn4)nc(C)c3c2C)cc1 178%
O=C(Cc1ccc([N+](=O)[O-])cc1)N/N=C/c1ccccc1F -24.9%
Cn1c(O)c(N=NC(=S)Nc2ccccc2F)c2cc(S(=O)(=O)N3CCOCC3)ccc21 -13.7%
CC(C)(C)NC(=O)NC(=O)COC(=O)COc1ccc(Cl)cc1Cl -6.81%
Cc1nnc(NC(=O)c2ccc(S(=O)(=O)N(C)Cc3ccccc3)cc2)o1 5.98%
O=C1C=C(c2cccc(CO)c2)C[C@@H](c2ccc(Cl)cc2)C1 4.12%
Cc1ccc(CNC(=O)CCCC(=O)Nc2cc(C)on2)cc1 -26.7%
CN(C(=S)NC(=O)/C=C/c1ccc(F)cc1)C1CCCCC1 31.4%
COc1ccccc1-c1nnc(NC(=O)Cc2ccccc2)o1 17.1%
CC(C)(C)C(=O)NC(=S)Nc1ccccn1 -73.4%
COc1ccc(/C=C2\N=C(c3ccc(C)cc3)OC2=O)cc1 57.3%
CCN1C(=NCCc2c[nH]c3ccccc23)N[C@@H](c2ccccc2)[C@H](C(=O)OC)[C@H]1C -18.7%

A portion taken from the entries so far:
Lipid storage change, negative = inhibition, inconclusive:
COc1ccc(NC(=O)CCC(=O)c2cccs2)cc1Cl -62.9%
Cc1cc(S(=O)(=O)N2CCOCC2)ccc1OCC(=O)NCCCn1ccnc1 -22.9%

Next part:

Potency, inconclusive:
COc1ccc(CCNC(=O)C2CC(=O)N(c3ccc(C(C)(C)C)cc3)C2)cc1OC (stereo not given) 6510 nM [falling, single point]
CCn1c(CO)nc2c1c(=O)[nH]c(=O)n2Cc1ccccc1 1840 nM [activator, full curve, poor fit]
Nc1nn(-c2ccccc2)nc1C(=O)OCc1ccccc1 20600 nM [activator, single point]
CCOC(=O)CN1C(=O)S/C(=C/c2ccco2)C1=O 1640 nM [falling, single point]
CCc1cc([N+](=O)[O-])cc(CC)c1N 8200 nM [rising, partial curve]
Cc1ccc(S(=O)(=O)N2CCN(C(=O)c3sccc3-c3ccccc3)CC2)cc1 29100 nM [falling, single point]
O=c1[nH]cnc2c1c(-c1ccccc1)cn2-c1ccc(F)cc1 29100 nM [activator, single point]
CCOc1ccc(N(CC(=O)NCc2ccc(F)cc2)C(=O)c2ccco2)cc1 259 nM [falling, single point]
O=C(O)CNC(=O)c1cccc(C(F)(F)F)c1 103 nM [falling, full curve, poor fit]
N#CC(C#N)=C1NC2(CCCC2)Cc2ccccc21 820 nM [activator, full curve, poor fit]
CCc1nnc(NC(=O)c2nc(Cl)ccc2Cl)s1 29100 nM [activator, single point]
Cc1ccc(/C=C2\SC(=S)N(CCCC(=O)Nc3cc(C)on3)C2=O)cc1 18400 nM [falling, single point]
CCOC(=O)c1oc2ccccc2c1NC(=O)c1ccc(S(=O)(=O)N2CCCC2)cc1 580 nM [activator, full curve]
COc1ccc(CCNc2ncnc3sccc23)cc1OC 2910 nM [falling, full curve]
Oc1c(Br)cc(Br)cc1C=Nc1ccc2c(c1)OCO2 13000 nM [activator, partial curve]
CCN1C(=NCCc2c[nH]c3ccccc23)N[C@@H](c2ccccc2)[C@H](C(=O)OC)[C@H]1C 8.2 nM [activator, full curve, poor fit]
Cc1ccc(C(CC(=O)NCCCN(C)C)c2ccc(OC(C)C)cc2)cc1 (stereo not given) 1300 nM [activator, partial curve]
